Assay results reported in patent US6730293B1 (CellGate, Inc., priority 1999, dated 2004).

Assay: general procedure: Fmoc solid-phase peptide synthesis; Rink amide resin; HATU
Conditions: conjugation step

With Fl-ahx-RRRRR the conjugation yield was 29% isolated yield.
